# Data reported in patent EP0928340B1, “INVASION-INHIBITORS FOR USE IN WOUND HEALING AND CANCER” (THE REGENTS OF THE UNIVERSITY OF MICHIGAN, priority 1996, dated 2009).
# At least one peptide structure holds a part that was inferred or is arguable (an end, a ring closure or a residue). Non-standard residues stand in square brackets, D forms with d. Residues, ends and D or L forms follow the SMILES beside them. No end group written: not given here. hCys = N[C@@H](CCS)C(=O)O
# Columns and labels:
# [1] = tested on: SUM-52 PE breast cancer cells; assay: SU-ECM in vitro invasion assay, human breast cancer cells; assay type: cell-based; details: for inhibition of serum-induced invasion / inhibition of PHSRN-induced invasion: SU-ECM; for inhibition of serum-induced invasion: medium with 5% serum; for inhibition of PHSRN-induced invasion: serum free media, 100 ng per ml PHSRN
# [2] = tested on: normal human mammary epithelial cells; assay: SU-ECM in vitro invasion assay, normal mammary epithelial cells; assay type: cell-based; details: 10% FCS, 100 ng per ml PHSRN
# [3] = tested on: MatLyLu (MLL) cells; assay: Growth and metastasis of injected MLL prostate tumors in rats, treatment started with the cell injection (Example 12); assay type: in vivo, Copenhagen rats
# [4] = tested on: rat metastatic prostate carcinoma MatLyLu (MLL) cells; assay: SU-ECM in vitro invasion assay, rat prostate cancer cells; assay type: cell-based; details: for inhibition of PHSRN-induced invasion: serum free media, 100 ng per ml PHSRN
# [5] = tested on: MatLyuLu (MLL) cells; assay: Growth and metastasis of injected MLL prostate tumors in rats, treatment started after 24 hours (Example 13); assay type: in vivo, Copenhagen rats
# [6] = tested on: DU-145 prostate cancer cells; assay: SU-ECM in vitro invasion assay, human prostate cancer cells; assay type: cell-based; details: for inhibition of serum-induced invasion: 10% serum; for inhibition of PHSRN-induced invasion: serum-free medium, 100 ng per ml PHSRN
# Method: Adult Strongylocentrotus purpuratus sea urchins were obtained from Pacific BioMarine, and their embryos were cultured to the early pluteus stage in artificial sea water at 15°C. SU-ECM were prepared from them by treatment with nonionic detergent and strerilized by dilution in the appropriate media.
# […] When appropriate, purified bovine plasma fibronectin (Sigma), purified 120 kDa chymotryptic fragment (Gibco BRL). PHSRN or PHSCN peptides (synthesized at the Biomedical Research Core Facilities of the University of Michigan), or GRGDSP or GRGESP peptides (Gibco BRL) were added to the resuspended cells prior to placement of the cells on SU-ECM. In each well of a plate used for an invasion assay, SU-ECM were placed in 0.5 ml of the appropriate medium, and 0.5ml of the resuspended cells dropped on their exterior surfaces. Invasion assays were incubated 1 to 16 hours prior to assay. If some circumstances, invasion assays were fixed in phosphate-buffered saline (PBS) with 2% formaldehyde for 5 minutes at room temperature, then rinsed into PBS.
# Invasion assays were coded and scored blindly by microscopic examination under phase contrast at 200- and 400-fold magnification. Each cell contacting an SU-ECM was scored for its position relative to the exterior or interior surfaces. A cell was judged to have invaded if it was located on an interior surface below the focal plane passing through the upper surface of the SU-ECM, but above the focal plane passing through its lower surface. The minimum viability of the cells in each assay was always ascertained at the time of assay by determining the fraction of spread, adherent cells on the bottom of each well scored.
# An invasion frequency is defined as the fraction of cells in contact with basement membranes which were located in their interiors at the time of assay. Thus, an invasion frequency of 1 denotes invasion by 100% of the cells in contact with basement membranes. Invasion frequencies were determined multiple times for each cell type assayed. For each type of cell assayed the mean and standard deviation of the invasion frequencies were calculated.
# The method of Example 4 is employed, with the addition of varying concentrations of the PHSCN peptide.
# Thus, the procedure in Example 4 provides a method for determining the inhibitory potential of the PHSCN peptide by comparing the number of cell invasions in the presence of the PHSCN peptide, with the number of cell invasions in the absence of the PHSCN peptide.
# In this example, in vitro invasion of cancer cells into substrates is inhibited with peptides that have been chemically modified with protecting groups and peptides having protecting groups as well as the modification wherein an L-amino acid has been replaced with the D-isomer. PHSCN peptide, blocked PHSCN peptide, and blocked PHSCN peptide with a D-cysteine instead of the L-isomer, were tested (Figure 11).
# In this example, in vitro invasion of cancer cells into substrates is inhibited with non-peptide mimetics in comparison with chemically modified peptides (on a molar basis). The peptides of Example 14 (i.e. peptides chemically modified with protecting groups and peptides having protecting groups as well as the modification wherein an L-amino acid has been replaced with the D-isomer) were compared with the non-peptide mimetics DL-N-Acetylhomocysteinethiolactone, Thiobutyrolactone, and Mercaptopropionic acid, in order to investigate the structure activity relationship for invasion inhibition by interaction with the PHSRN-binding pocket of the α5β1 fibronectin receptor (Figure 12)
# [7] = tested on: normal human prostate epithelial cells; assay: SU-ECM in vitro invasion assay, normal prostate epithelial cells; assay type: cell-based; details: 10% FCS, 100 ng per ml PHSRN
# [8] = tested on: normal, neonatal fibroblasts; assay: Fibroblast invasion of fibronectin-depleted Matrigel (gelatin and antibody panning); assay type: cell-based; details: Matrigel depleted by gelatin and antibody panning (Figure 4)
# [9] = tested on: neonatal, human fibroblasts; assay: SU-ECM in vitro invasion assay, fibroblasts; assay type: cell-based; details: serum-free SU-ECM
# [10] = higher concentrations (Figure 5B)
# [11] = in the presence of just the PHSRN sequence of fibronectin
molecule,measurement,setting,value
PHSCN [PHSCN],inhibition of serum-induced invasion,[1]; relatively high concentrations (Figure 5A),complete inhibition
same,inhibition of serum-induced invasion,[1]; relatively low concentrations (Figure 5A),substantial inhibitory affect
same,inhibition of PHSRN-induced invasion,[1]; [10],almost complete inhibition
same,inhibition of PHSRN-induced invasion,[1]; low concentrations (Figure 5B),substantial inhibitory affect
same,inhibition of PHSRN-induced invasion,[2]; [10],almost complete inhibition
same,inhibition of PHSRN-induced invasion,[2]; low concentrations (Figure 5B),substantial inhibitory affect
same,growth of injected MLL tumors,"[3]; 1 mg with the injected cells, then 1 mg tail vein three times per week for two weeks, tumor size by calipers on day 14 (Figure 9A)",significantly slows the growth
same,mean number of lung metastases,"[3]; treated rats (MLL + PHSCN), two weeks after tumor measurement, 10-fold magnification, primary tumors not removed (Figure 9B)",less than 5
same,inhibition of serum-induced invasion,[4]; 1 microgram per ml of peptide (Figure 7A),complete inhibition of invasion
same,inhibition of PHSRN-induced invasion,[4]; higher concentrations (Figure 7B),almost complete inhibition
same,inhibition of PHSRN-induced invasion,[4]; low concentrations (Figure 7B),substantial inhibitory affect
same,mean numbers of lung metastases,"[5]; 2 more i.v. doses prior to sacrifice, ten days after tumor measurement, 7.5-fold magnification, versus untreated rats (Figure 10B)",significant reduction
same,tumor sizes,"[5]; MLL/PHSCN rats, 7 to 9 days following the last PHSCN injection",greater than 2 cm
same,growth of rat prostate cancer tumors,"[5]; treatment initiated after 24 hours, 5 i.v. injections of 1 mg over two weeks, tumor size on day 14 (Figure 10A)",substantially slows the growth
same,mean masses of intraperitoneal (lymphatic) metastases,"[5]; versus untreated rats, groups of 10 rats (Figure 10C)",significant reduction
same,inhibition of serum-induced invasion,"[6]; SU-ECM, relatively high concentrations (Figure 6A)",complete inhibition
same,inhibition of serum-induced invasion,"[6]; SU-ECM, relatively low concentrations (Figure 6A)",substantial inhibitory affect
same,concentration that completely inhibits invasion,"[6]; SU-ECM, medium with 10% serum (Example 14, Figure 11)",3 ng/mL
same,concentration that completely (fully) inhibits invasion,"[6]; SU-ECM, medium with 10% serum (Example 15, Figure 12)",approximately 2 µM
same,inhibition of PHSRN-induced invasion,"[6]; SU-ECM, higher concentrations (Figure 6B)",almost complete inhibition
same,inhibition of PHSRN-induced invasion,"[6]; SU-ECM, low concentrations (Figure 6B)",substantial inhibitory affect
same,inhibition of PHSRN-induced invasion,[7]; higher concentrations (Figure 6B),almost complete inhibition
same,inhibition of PHSRN-induced invasion,[7]; low concentrations (Figure 6B),substantial inhibitory affect
"PHSRN [PHSRN, reference compound]",induction of invasion of the SU-ECM substrate,[1]; [11],induced to invade
same,induction of invasiveness of fibroblasts,[8],could be induced
same,induction of invasion of SU-ECM,[9],induced
same,induction of invasion of the SU-ECM substrate,[6]; [11],induced to invade
NC(=O)C[C@H](NC(=O)[C@H](CCS)NC(=O)[C@H](CO)NC(=O)[C@H](Cc1c[nH]cn1)NC(=O)[C@@H]1CCCN1)C(=O)O [PHS(hC)N] (H-PHS[hCys]N-OH),inhibition of serum-induced invasion,"[4]; 10% FCS, higher concentrations (Figure 8)",completely inhibits invasion
same,inhibition of serum-induced invasion,"[4]; 10% FCS, lower concentrations (Figure 8)",substantially inhibits invasion
CC(=O)N1CCC[C@H]1C(=O)N[C@@H](Cc1c[nH]cn1)C(=O)N[C@@H](CO)C(=O)N[C@H](CS)C(=O)N[C@@H](CC(N)=O)C(N)=O [Ac-PHS(dC)N-NH2] (Ac-PHS[dC]N-NH2),invasion-inhibitory activity compared with Ac-PHSCN-NH2,"[6]; medium with 10% serum (Example 14, Figure 11)",further increases the invasion-inhibitory activity
same,invasion-inhibitory activity compared with Ac-PHSCN-NH2,"[6]; medium with 10% serum (Example 15, Figure 12)",further increases very substantially the invasion-inhibitory activity
